Measurements as given in US20210122813A1 (Kyowa Kirin, published 2021).
No constants are given. Whether binding was seen depends on the method and setting. Some binding calls cover weakened binding; strength is not graded here.

Tests used:
[1] = target: T1, human BMP9/BMP10 heterodimer present in human serum (human) (UniProt O95393); test: sandwich ELISA: biotinylated 12H3 (50 ng/mL) detects the material captured from human serum (0-16%) by immobilized anti-BMP9 antibody 10D5
T1 sequence 1: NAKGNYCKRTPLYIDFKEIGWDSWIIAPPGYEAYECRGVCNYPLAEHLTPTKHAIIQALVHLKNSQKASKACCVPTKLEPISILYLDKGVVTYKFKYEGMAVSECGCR
T1 sequence 2: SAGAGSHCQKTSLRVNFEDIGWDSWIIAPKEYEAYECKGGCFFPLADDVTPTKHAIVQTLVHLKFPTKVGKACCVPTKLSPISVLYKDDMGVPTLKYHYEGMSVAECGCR

[2] = target: T1, human BMP9/BMP10 heterodimer present in human serum (human); test: sandwich ELISA: 10D5 immobilized, human serum 1-16%, detection with biotinylated 12H3 antibody
[3] = target: T2, human BMP10 mature dimer (manufactured by R & D Systems, Inc., Cat #2926-BP) (human) (UniProt O95393); test: SPR (Biacore T100)
T2 sequence: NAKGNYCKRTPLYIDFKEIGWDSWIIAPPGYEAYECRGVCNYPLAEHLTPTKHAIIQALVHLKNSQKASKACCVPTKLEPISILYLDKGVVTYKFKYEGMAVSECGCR

B1: 12H3 antibody (antibody, V domains shown)
VH: QVQLKETGPDLVQLTQTLSITCTVSGFSLSTYNVHWVRQPPGKGLEWMGAMWNGGGINYNSAFKSRLSISRDTSKSQVFLKMNSLQTDDTAKYFCARFGYGFDYWGQGVMVTVSS
VL: ETVMTQSPTSMSTSIGERVTLNCKASQSVGINVDWYQRTPGQSPKLLIHGASNRHTGVPDRFTGSGFGRDFTLTISNVEAEDLTIYYCLQYGSIPLTFGAGTKLELI
binding [1]: binds | binding [2]: binds

B2: 12H3 chimeric antibody (antibody, V domains shown)
VH: QVQLKETGPDLVQLTQTLSITCTVSGFSLSTYNVHWVRQPPGKGLEWMGAMWNGGGINYNSAFKSRLSISRDTSKSQVFLKMNSLQTDDTAKYFCARFGYGFDYWGQGVMVTVSS
VL: ETVMTQSPTSMSTSIGERVTLNCKASQSVGINVDWYQRTPGQSPKLLIHGASNRHTGVPDRFTGSGFGRDFTLTISNVEAEDLTIYYCLQYGSIPLTFGAGTKLELI
notes: also called ch12H3 antibody
binding [3]: binds
